Source: patent publication US8729028B2 (Caregen Co., Ltd., priority 2009, dated 2014)

Assay: general procedure: peptide synthesis; chlorotrityl chloride resin
Conditions: whole synthesis

Glu-Leu-Ile-Glu-His (SEQ ID NO:2)-Linker-Arg-Pro-Ala-Asp (SEQ ID NO:3) peptide (linker=Gly-Gly-Gly) (ELIEHGGGRPAD; listed as Homo sapiens)
crude mass: 1.11 g
crude yield (scale of the general procedure 700 mg resin): 88.2%
